From the supplement of paper PMC7666118
The other results are listed elsewhere or left out.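 How the source made its calls: active = dose-dependent thermal stabilisation significant by F-test of dose-response against flat model at 10% FDR; inactive = not significant.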

By UniProt entry, the sequences of proteins in these tests, tags left out. Where a name states a change or a piece, a line headed by the entry shows the natural chain unless it says otherwise.
UniProt Q9UKL3: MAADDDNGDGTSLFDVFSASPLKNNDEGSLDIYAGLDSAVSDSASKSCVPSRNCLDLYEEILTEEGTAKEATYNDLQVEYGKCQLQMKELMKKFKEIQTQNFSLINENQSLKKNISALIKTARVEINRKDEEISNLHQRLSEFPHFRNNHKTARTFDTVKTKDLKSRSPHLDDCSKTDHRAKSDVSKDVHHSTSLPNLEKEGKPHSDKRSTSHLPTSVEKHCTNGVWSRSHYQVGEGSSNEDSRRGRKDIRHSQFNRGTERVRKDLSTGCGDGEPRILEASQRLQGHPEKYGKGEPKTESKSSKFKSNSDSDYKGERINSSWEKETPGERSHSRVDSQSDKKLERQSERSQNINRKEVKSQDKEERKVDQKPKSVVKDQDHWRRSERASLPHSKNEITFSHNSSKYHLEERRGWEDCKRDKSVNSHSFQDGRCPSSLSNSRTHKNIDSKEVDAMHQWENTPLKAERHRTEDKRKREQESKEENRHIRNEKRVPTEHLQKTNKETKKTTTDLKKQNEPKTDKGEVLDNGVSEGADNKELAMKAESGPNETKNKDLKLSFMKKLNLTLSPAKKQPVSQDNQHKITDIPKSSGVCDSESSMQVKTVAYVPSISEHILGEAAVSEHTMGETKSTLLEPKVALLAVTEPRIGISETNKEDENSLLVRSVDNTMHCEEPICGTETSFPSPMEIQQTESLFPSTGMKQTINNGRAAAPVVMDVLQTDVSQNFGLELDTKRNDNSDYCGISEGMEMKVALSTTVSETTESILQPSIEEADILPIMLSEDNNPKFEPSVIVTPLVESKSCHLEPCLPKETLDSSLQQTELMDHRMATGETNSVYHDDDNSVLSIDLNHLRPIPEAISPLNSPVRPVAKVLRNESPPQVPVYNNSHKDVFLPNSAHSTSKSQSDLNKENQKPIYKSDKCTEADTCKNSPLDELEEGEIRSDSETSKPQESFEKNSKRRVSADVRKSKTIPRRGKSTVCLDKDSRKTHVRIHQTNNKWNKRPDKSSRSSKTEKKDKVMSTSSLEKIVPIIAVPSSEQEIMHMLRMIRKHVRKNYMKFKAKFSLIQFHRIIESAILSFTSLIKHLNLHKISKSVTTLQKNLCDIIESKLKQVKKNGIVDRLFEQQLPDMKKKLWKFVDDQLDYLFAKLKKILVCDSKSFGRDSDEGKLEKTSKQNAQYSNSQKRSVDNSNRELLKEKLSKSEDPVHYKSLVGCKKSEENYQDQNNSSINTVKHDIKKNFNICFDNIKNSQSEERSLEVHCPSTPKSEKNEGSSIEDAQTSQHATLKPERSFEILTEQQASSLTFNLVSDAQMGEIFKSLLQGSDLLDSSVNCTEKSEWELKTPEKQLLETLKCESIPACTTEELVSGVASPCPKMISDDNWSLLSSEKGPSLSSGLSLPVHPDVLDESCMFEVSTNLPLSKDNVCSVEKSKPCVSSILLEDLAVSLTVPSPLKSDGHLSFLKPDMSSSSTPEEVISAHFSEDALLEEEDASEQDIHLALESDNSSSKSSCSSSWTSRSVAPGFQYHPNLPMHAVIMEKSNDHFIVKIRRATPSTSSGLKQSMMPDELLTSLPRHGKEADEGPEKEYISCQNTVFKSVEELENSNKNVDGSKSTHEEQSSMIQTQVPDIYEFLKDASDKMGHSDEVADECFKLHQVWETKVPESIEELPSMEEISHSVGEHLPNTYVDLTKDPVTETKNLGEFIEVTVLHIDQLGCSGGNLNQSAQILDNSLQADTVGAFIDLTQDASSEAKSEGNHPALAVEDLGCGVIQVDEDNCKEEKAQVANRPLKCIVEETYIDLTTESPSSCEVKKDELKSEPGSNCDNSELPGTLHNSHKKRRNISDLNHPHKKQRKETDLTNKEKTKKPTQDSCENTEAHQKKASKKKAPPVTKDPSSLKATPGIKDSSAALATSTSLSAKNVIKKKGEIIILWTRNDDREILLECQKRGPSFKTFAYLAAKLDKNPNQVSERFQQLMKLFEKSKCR
UniProt P57737: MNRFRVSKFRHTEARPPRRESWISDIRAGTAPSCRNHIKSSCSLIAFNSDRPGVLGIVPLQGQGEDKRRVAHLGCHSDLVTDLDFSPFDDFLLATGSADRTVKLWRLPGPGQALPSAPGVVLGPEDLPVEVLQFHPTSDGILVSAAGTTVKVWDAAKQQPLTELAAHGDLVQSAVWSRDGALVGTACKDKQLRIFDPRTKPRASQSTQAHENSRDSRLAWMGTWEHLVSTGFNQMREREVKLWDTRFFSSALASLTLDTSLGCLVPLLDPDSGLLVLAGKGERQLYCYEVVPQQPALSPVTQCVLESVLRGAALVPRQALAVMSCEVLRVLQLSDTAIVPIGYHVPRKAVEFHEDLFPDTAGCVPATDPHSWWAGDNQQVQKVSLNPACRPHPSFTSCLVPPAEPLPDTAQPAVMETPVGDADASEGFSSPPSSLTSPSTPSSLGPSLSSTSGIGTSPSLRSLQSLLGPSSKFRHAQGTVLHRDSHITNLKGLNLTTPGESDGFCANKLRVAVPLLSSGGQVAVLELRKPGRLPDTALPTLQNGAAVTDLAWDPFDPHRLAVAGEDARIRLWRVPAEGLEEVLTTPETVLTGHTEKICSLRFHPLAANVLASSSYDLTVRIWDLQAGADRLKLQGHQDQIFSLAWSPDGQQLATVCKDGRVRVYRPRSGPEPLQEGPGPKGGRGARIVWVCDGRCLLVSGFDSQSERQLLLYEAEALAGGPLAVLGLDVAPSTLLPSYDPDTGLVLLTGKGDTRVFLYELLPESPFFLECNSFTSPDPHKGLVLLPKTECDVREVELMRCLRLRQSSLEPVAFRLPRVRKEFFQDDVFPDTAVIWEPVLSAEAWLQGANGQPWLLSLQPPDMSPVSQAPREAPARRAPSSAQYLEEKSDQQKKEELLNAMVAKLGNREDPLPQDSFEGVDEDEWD
UniProt P55273: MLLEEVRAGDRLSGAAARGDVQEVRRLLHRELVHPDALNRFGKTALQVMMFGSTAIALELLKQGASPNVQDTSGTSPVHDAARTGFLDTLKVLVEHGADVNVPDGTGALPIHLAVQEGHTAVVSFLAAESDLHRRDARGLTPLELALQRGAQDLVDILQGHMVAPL
UniProt P42574: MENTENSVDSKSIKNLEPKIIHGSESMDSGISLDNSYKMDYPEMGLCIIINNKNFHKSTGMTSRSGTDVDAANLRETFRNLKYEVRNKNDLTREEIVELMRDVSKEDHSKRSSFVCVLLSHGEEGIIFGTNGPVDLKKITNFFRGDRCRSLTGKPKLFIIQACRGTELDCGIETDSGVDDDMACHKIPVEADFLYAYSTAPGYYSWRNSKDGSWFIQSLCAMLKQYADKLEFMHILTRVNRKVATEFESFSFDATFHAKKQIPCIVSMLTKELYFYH
UniProt Q9H6E4: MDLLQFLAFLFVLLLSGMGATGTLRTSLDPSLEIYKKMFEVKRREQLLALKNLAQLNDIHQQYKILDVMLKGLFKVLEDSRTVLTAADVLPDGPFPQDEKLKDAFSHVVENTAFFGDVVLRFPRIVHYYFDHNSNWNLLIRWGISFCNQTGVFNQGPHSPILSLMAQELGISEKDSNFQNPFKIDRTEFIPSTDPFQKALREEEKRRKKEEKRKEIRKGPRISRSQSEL
UniProt Q86VX2, whole entry: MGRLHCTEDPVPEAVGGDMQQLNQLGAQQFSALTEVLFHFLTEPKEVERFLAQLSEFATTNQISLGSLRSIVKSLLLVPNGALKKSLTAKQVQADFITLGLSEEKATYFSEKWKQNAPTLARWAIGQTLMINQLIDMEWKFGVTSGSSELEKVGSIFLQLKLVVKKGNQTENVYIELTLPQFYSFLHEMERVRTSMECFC
UniProt P33552, whole entry: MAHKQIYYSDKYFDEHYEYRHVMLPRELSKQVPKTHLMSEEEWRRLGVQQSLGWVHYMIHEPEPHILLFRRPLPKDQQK
UniProt Q96FF9: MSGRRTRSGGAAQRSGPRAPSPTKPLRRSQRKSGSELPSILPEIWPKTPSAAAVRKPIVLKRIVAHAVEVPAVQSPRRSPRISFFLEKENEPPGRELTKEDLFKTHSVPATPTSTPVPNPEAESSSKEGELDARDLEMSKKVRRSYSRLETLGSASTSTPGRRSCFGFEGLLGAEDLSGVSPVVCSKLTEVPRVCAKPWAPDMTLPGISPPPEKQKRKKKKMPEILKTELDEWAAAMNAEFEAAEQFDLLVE
UniProt Q9HC77: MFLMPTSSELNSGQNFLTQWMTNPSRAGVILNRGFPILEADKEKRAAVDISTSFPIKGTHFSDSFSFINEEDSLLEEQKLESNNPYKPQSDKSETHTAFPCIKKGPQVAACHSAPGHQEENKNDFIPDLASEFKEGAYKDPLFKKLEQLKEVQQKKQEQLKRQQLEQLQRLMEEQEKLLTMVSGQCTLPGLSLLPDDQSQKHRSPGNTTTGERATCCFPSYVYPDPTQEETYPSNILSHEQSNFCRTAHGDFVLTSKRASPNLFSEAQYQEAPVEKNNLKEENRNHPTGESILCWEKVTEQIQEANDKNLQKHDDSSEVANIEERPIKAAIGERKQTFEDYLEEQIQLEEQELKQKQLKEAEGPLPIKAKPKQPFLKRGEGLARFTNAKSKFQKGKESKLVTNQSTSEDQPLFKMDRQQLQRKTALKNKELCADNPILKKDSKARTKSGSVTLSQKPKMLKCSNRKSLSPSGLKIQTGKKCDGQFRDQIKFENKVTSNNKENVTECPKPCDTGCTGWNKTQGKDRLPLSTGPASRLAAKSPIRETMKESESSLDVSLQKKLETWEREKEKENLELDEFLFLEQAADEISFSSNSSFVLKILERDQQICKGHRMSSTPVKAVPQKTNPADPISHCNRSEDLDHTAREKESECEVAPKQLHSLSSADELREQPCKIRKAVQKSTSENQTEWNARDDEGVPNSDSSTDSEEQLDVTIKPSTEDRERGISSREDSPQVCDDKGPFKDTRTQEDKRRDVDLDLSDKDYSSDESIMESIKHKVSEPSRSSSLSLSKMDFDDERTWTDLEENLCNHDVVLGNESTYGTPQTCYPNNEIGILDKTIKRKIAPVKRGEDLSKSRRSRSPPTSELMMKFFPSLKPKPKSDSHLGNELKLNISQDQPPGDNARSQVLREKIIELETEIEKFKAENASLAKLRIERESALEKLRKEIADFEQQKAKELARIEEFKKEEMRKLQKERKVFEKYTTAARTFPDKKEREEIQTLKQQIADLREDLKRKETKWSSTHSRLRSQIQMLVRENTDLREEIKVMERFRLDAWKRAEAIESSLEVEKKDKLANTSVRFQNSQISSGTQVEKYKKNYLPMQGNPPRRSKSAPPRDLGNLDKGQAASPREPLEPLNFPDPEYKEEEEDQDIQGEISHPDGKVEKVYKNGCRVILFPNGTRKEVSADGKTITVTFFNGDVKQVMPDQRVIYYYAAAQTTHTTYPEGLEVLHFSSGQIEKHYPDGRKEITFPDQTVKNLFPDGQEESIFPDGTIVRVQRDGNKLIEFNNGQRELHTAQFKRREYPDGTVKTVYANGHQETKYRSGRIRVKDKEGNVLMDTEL
UniProt Q9UKF6: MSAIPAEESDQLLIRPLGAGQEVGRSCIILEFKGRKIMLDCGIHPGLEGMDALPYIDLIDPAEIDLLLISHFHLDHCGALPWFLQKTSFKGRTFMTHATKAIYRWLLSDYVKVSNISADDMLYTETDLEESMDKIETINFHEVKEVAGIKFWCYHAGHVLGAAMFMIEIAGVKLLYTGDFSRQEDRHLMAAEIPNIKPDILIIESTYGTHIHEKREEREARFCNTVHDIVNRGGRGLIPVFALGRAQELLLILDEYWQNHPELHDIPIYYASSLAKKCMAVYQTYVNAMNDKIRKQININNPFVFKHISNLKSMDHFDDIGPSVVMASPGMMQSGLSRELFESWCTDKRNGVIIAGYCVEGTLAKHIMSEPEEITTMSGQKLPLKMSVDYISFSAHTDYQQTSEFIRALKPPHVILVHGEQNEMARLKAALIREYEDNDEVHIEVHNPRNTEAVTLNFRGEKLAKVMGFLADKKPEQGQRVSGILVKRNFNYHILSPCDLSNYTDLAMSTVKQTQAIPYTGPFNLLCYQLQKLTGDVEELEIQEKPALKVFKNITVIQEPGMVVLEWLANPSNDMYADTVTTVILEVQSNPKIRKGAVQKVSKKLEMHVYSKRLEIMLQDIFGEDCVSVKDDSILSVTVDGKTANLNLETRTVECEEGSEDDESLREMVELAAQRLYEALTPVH
UniProt Q8WUX9: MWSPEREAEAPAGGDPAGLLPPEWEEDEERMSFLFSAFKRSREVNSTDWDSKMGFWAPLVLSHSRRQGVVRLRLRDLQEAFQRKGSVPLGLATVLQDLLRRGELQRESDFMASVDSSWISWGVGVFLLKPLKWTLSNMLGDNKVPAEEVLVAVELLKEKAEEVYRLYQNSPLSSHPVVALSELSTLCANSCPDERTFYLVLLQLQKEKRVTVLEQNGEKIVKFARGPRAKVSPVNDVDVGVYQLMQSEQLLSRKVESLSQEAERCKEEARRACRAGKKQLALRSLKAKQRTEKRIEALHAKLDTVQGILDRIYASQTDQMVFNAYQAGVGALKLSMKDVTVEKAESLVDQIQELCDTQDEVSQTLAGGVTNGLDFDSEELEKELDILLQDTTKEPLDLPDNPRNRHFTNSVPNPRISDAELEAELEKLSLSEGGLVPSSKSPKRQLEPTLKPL

compound: Nc1nc2c(ncn2[C@@H]2O[C@H](COP(=O)(O)OP(=O)(O)OP(=O)(O)O)[C@@H](O)[C@H]2O)c(=O)[nH]1; assay: dose-dependent thermal stabilisation call (2D-TPP, DLPTP, 10% FDR) (binary (1 = stabilised)); higher = stabilised by the compound; conditions: system: Jurkat gel-filtered lysate; concentration range 1-500 µM

| Target | dose-dependent thermal stabilisation call |
| --- | --- |
| CDK7 (UniProt P50613) | inactive: 0 |
| COPS7A (UniProt Q9UBW8) | inactive: 0 |
| CCDC88C (UniProt Q9P219) | inactive: 0 |
| CGN (UniProt Q9P2M7) | inactive: 0 |
| CHAF1B (UniProt Q13112) | inactive: 0 |
| CASP8AP2 (UniProt Q9UKL3) | inactive: 0 |
| CORO7 (UniProt P57737) | active: 1 |
| CDKN2D (UniProt P55273) | inactive: 0 |
| CPSF4 (UniProt O95639) | inactive: 0 |
| CASP3 (UniProt P42574) | inactive: 0 |
| CFL2 (UniProt Q9Y281) | inactive: 0 |
| CHMP4A (UniProt Q9BY43) | inactive: 0 |
| CCS (UniProt O14618) | active: 1 |
| CHML (UniProt P26374) | inactive: 0 |
| CCDC186 (UniProt Q7Z3E2) | inactive: 0 |
| CCDC134 (UniProt Q9H6E4) | inactive: 0 |
| COMMD7 (UniProt Q86VX2) | inactive: 0 |
| CCNK (UniProt O75909) | inactive: 0 |

Quoted from the listing:
CHMP4A (UniProt Q9BY43) – dose-dependent thermal stabilisation call: inactive: 0
CHML (UniProt P26374) – dose-dependent thermal stabilisation call: inactive: 0

The list continues.

| Target | dose-dependent thermal stabilisation call |
| --- | --- |
| CNOT4 (UniProt O95628) | inactive: 0 |
| CCDC94 (UniProt Q9BW85) | inactive: 0 |
| CCAR2 (UniProt Q8N163) | inactive: 0 |
| CETN3 (UniProt O15182) | inactive: 0 |
| CKS2 (UniProt P33552) | inactive: 0 |
| COPS4 (UniProt Q9BT78) | inactive: 0 |
| CDCA5 (UniProt Q96FF9) | inactive: 0 |
| CIZ1 (UniProt Q9ULV3) | inactive: 0 |
| CENPJ (UniProt Q9HC77) | inactive: 0 |
| COMMD1 (UniProt Q8N668) | inactive: 0 |
| CEP85 (UniProt Q6P2H3) | inactive: 0 |
| COL4A3BP (UniProt Q9Y5P4) | inactive: 0 |
| CPSF3 (UniProt Q9UKF6) | inactive: 0 |
| CDK9 (UniProt P50750) | inactive: 0 |
| CCT8 (UniProt P50990) | inactive: 0 |
| CHMP7 (UniProt Q8WUX9) | active: 1 |
| CLEC16A (UniProt Q2KHT3) | inactive: 0 |
| CAST (UniProt P20810) | inactive: 0 |
